# This is one part of the list. The data scatter; read single values as rough.
# The chains behind the UniProt entries cited, without tags or fusion partners. Where a name states a change or a piece, a line headed by the entry shows the natural chain unless it says otherwise. Residues count along the entry.
# UniProt Q9NPG3, 26-46: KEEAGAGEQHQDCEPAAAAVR
# UniProt Q9Y4A5, whole entry, looked up: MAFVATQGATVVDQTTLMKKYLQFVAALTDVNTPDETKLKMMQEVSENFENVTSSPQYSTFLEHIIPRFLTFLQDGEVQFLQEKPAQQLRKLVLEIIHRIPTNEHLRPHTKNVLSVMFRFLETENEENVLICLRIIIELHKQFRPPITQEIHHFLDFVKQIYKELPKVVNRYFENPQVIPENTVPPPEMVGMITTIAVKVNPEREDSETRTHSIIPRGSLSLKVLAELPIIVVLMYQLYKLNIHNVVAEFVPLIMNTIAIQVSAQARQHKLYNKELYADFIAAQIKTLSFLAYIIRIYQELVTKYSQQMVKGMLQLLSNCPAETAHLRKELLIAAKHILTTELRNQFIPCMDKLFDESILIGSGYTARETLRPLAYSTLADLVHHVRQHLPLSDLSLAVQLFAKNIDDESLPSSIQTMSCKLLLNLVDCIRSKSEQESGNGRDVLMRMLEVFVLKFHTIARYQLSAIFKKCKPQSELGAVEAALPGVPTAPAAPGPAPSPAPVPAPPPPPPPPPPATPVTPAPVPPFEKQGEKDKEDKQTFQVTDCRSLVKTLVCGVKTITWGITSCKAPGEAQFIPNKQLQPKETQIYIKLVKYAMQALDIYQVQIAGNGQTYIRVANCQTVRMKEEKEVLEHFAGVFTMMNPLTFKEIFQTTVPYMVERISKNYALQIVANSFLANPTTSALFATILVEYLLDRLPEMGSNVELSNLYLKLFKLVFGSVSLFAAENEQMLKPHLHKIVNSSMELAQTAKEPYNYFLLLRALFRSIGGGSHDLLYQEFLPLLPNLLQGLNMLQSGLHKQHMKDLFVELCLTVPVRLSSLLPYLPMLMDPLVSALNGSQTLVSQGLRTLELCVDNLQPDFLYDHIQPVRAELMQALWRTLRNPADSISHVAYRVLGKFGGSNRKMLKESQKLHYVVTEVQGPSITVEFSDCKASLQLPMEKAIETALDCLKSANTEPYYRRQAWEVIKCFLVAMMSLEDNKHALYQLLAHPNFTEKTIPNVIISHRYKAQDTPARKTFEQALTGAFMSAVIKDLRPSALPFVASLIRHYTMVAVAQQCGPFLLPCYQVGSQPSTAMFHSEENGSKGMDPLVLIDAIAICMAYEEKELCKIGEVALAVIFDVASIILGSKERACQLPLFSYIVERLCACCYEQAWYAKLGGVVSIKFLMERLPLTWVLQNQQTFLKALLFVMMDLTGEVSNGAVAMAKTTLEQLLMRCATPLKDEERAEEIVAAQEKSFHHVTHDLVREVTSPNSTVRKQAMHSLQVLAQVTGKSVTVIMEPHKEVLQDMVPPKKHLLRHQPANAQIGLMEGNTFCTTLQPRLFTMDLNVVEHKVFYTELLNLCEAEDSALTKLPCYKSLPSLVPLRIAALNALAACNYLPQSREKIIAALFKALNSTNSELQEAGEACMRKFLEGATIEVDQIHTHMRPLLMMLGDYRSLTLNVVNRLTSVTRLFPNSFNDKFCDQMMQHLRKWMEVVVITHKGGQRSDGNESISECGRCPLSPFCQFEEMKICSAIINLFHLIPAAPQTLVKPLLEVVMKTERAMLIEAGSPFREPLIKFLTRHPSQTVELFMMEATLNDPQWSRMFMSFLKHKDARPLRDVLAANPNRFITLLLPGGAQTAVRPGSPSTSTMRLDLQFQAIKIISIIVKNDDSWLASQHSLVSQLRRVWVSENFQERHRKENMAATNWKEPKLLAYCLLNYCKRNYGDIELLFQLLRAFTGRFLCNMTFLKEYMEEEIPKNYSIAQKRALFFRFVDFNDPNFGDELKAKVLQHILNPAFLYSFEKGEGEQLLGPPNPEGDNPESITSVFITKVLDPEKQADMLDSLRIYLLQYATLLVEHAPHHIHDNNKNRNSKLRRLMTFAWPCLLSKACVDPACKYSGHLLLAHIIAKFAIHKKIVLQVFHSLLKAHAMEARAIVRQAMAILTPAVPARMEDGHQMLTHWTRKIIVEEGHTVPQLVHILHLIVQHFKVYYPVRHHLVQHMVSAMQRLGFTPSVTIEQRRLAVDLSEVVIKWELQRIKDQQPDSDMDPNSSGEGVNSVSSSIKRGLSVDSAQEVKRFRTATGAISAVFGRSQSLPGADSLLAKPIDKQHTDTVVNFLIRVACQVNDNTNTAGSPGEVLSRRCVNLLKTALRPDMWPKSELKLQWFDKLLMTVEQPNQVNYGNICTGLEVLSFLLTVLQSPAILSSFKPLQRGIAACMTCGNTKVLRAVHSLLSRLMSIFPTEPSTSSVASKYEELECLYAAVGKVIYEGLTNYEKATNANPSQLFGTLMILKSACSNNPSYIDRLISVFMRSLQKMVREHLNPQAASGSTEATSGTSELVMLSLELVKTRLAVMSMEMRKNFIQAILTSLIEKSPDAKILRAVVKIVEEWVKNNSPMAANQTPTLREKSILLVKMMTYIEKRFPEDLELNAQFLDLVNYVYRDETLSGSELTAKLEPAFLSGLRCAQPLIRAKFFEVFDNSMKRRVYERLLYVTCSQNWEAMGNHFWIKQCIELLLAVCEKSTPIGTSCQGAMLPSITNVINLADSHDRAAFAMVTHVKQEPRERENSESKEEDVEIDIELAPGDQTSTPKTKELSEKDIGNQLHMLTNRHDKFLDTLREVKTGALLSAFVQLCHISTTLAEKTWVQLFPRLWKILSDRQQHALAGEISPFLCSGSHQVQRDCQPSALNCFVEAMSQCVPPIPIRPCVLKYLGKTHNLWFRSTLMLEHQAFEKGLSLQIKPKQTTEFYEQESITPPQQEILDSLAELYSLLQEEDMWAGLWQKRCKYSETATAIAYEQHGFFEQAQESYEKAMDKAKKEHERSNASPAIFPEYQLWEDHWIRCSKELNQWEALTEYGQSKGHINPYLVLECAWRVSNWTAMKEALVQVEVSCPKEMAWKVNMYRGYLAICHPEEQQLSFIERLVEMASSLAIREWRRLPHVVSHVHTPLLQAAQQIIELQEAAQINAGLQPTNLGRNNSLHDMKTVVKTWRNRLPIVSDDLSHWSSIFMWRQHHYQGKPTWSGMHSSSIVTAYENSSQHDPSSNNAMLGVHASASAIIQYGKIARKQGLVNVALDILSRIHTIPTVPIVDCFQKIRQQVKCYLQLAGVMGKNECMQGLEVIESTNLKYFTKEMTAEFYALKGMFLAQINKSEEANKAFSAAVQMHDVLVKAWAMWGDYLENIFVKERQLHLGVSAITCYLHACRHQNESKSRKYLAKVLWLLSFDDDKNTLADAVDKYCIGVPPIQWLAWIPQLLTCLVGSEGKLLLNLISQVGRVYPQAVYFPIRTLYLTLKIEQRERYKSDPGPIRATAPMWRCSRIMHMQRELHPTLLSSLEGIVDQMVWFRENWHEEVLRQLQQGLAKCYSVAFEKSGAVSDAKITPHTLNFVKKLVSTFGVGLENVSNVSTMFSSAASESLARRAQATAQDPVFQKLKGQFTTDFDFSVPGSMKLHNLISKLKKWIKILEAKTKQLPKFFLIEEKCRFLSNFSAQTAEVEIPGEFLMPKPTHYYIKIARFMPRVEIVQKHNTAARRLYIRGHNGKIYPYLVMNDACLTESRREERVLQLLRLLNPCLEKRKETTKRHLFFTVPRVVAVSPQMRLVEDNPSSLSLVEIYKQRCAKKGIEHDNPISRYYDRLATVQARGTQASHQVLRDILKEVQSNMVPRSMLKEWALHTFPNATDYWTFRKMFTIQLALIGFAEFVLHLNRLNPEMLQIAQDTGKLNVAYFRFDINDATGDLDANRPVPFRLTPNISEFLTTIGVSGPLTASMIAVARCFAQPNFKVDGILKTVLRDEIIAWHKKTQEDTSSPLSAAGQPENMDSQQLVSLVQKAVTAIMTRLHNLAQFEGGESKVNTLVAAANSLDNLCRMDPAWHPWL
# UniProt P22314: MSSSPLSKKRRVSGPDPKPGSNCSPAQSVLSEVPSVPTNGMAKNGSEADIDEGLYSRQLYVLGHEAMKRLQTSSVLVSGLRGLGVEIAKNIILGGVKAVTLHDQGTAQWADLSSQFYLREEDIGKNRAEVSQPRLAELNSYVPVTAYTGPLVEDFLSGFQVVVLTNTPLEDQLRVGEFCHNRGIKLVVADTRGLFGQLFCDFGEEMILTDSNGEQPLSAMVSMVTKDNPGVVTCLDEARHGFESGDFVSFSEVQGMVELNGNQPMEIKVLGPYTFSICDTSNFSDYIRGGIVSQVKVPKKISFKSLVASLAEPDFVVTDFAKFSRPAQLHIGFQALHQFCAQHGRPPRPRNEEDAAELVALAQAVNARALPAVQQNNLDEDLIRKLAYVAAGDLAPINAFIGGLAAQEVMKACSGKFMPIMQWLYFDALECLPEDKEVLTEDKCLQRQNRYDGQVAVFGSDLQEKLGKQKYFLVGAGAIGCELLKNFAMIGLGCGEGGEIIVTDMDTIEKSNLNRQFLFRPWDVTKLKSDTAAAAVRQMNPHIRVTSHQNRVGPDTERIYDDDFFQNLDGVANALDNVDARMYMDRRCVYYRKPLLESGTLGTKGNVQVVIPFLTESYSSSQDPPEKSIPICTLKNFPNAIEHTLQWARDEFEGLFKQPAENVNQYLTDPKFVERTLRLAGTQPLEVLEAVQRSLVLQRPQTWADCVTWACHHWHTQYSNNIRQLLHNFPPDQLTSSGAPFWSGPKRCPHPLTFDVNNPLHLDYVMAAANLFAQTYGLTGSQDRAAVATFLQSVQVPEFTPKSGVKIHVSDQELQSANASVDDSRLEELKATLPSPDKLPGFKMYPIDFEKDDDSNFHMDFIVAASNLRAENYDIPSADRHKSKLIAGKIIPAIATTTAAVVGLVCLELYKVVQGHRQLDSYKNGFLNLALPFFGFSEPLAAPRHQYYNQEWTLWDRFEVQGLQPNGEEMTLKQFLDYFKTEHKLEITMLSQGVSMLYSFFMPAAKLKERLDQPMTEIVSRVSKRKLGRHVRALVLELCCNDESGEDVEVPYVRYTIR
# UniProt Q6PGP7, whole entry, looked up: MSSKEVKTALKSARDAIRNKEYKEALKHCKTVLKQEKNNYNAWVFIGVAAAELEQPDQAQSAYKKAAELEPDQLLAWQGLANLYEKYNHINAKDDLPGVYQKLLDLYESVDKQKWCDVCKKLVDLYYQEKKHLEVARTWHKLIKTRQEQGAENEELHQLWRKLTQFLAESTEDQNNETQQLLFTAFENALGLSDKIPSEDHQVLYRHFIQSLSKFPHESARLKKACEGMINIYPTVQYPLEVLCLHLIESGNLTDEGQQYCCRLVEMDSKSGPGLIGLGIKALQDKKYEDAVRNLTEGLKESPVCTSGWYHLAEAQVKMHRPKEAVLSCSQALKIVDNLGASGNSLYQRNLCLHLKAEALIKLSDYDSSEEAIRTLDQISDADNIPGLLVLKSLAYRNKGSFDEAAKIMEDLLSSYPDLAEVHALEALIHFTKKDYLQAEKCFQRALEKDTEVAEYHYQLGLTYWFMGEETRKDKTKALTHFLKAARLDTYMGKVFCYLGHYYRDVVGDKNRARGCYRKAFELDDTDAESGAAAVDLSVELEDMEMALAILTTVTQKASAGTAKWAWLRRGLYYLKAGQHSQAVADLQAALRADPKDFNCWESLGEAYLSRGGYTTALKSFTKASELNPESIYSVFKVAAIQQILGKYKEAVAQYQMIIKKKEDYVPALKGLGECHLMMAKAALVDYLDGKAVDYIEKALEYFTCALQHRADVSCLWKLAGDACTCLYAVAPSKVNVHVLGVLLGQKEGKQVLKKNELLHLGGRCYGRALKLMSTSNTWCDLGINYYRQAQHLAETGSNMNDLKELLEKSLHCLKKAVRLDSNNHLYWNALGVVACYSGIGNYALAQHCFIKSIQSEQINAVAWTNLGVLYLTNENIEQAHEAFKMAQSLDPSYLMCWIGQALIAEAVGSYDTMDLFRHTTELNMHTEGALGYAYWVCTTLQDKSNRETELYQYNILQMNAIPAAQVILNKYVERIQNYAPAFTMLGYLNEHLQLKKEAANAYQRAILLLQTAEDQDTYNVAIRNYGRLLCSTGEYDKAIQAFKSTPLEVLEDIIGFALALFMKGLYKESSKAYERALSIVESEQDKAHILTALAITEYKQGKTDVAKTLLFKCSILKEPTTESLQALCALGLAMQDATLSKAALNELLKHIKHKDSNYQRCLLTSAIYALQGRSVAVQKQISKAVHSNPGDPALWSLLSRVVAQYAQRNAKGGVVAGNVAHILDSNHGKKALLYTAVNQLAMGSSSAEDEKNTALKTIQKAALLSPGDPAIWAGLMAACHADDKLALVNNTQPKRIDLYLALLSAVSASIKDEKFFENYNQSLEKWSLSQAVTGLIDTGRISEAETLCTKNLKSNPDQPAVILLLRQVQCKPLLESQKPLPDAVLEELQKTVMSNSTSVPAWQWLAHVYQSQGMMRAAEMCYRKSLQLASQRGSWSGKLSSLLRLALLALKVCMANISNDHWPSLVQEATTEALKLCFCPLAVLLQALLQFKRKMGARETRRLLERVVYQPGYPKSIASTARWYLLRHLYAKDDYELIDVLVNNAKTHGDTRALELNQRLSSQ
# UniProt Q9BZL1: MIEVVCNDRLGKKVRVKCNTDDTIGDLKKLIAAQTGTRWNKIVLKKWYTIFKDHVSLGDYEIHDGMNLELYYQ
# Compound: ClCC(=O)N[C@H]1CCCc2ccccc12
# Assay: log2 mean competition ratio of IA-DTB cysteine labelling (DMSO/compound) (log2 ratio); higher = stronger cysteine engagement by compound
# Details: 50 µM; treatment time: 4 h; cell line lysate: HEK293T
# Experimental: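 IA-DTB competitive cysteine chemoproteomics in HEK293T RIPA lysate. Lysates were treated with compound 29 or 30 at 50 or 200 µM for 4 h, then IA-DTB (500 µM, 1 h), trypsin-digested, NeutrAvidin-enriched and analysed by diaPASEF. Competition ratio = intensity DMSO / intensity compound (n=4 treated, n=64 DMSO); binding: mean log2 CR ≥ 1 and p ≤ 0.05 plus QC filters. Target is the cysteine site.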
row,Target,log2 mean competition ratio
1,UBN1 C38 (UniProt Q9NPG3),-0.182
2,TRMT1 C614 (UniProt Q9NXH9),-0.216
3,TUT7 C911 (UniProt Q5VYS8),-0.0727
4,TTC39C C87 (UniProt Q8N584),0.701
5,TRNAU1AP C157 (UniProt Q9NX07),-0.388
6,UBE2M C65,-0.67
7,UBE3C C395 (UniProt Q15386),-0.427
8,U2AF2 C464,0.0374
9,UBN2 C614 (UniProt Q6ZU65),-0.0222
10,UBA2 C30,-0.305
11,TRRAP C546 (UniProt Q9Y4A5),-0.0649
12,TTK C295 (UniProt P33981),0.086
13,TRRAP C350 (UniProt Q9Y4A5),0.582
14,UBR2 C1360 (UniProt Q8IWV8),-0.355
15,TUT4 C746 (UniProt Q5TAX3),0.198
16,TUT7 C1413 (UniProt Q5VYS8),-0.00424
17,UBA1 C179 (UniProt P22314),-0.128
18,TTC37 C329 (UniProt Q6PGP7),0.204
19,TXNIP C49 (UniProt Q9H3M7),0.511

row,Target,log2 mean competition ratio
1,UACA C453 (UniProt Q9BZF9),-0.178
2,TRMT2A C191 (UniProt Q8IZ69),0.447
3,TRRAP C3758 (UniProt Q9Y4A5),0.00816
4,TRMT6 C492 (UniProt Q9UJA5),0.194
5,TTF2 C553 (UniProt Q9UNY4),-0.23
6,TXNDC11 C815 (UniProt Q6PKC3),0.0782
7,UBFD1 C185 (UniProt O14562),-0.165
8,U2SURP C65 (UniProt O15042),-0.25
9,UBE3B C75 (UniProt Q7Z3V4),-0.12
10,TTC37 C1422 (UniProt Q6PGP7),0.128
11,UBR2 C602 (UniProt Q8IWV8),0.159
12,TUT4 C572 (UniProt Q5TAX3),-0.095
13,UBE2Z C100 (UniProt Q9H832),0.591
14,TTC37 C1031 (UniProt Q6PGP7),-0.367
15,TUBGCP2 C737 (UniProt Q9BSJ2),-0.345
16,UBA1 C234 (UniProt P22314),-0.159
17,UBAP2 C208,0.6
18,UBE4B C581 (UniProt O95155),0.421
19,UBL5 C18 (UniProt Q9BZL1),-0.42

# 3 records picked at random from those above:
row,Target,log2 mean competition ratio
5,TTF2 C553 (UniProt Q9UNY4),-0.23
1,UACA C453 (UniProt Q9BZF9),-0.178
6,TXNDC11 C815 (UniProt Q6PKC3),0.0782

# Reference: the supplement of paper PMC11732987, “Enantioselective OTUD7B fragment discovery through chemoproteomics screening and high-throughput optimisation” (Communications Chemistry, 2025)
